Measurements reported in PubChem BioAssay AID1259405 (NCATS, 2018).

Test: 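Mouse-designed siRNAs used to find CHO productivity engineering targets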 (primary screen)
Cell system: Chinese hamster CHO-K1 ovary cells with stable secreted eGFP expression
Knock-down reagent: single siRNA against mouse genes, 0.8 pmol siRNA per well (2 µl of 400 nM stock)
Duration: 3 days
Measurement: 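Per-well intracellular GFP measured by laser scanning cytometry, plus viability from ATP luminescence, each relative to plate median of non-targeting control wells, in %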
Direction: GFP, % of control: higher = more GFP per well, higher productivity; viability (ATP), % of control: higher = more viable cells (more ATP)
Active means: 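a knock-down is called active if GFP reaches 120% or more of non-targeting control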
The deposit covers about 50,000 reagents; this is a random part of them. Of all reagents, about 4,000 (8%) are marked active. 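Mouse siRNA library applied to hamster cells; one well for each siRNA.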 The numbers tell different reagents against one gene apart.

gene	siRNA no.	GFP, % of control	viability (ATP), % of control	Outcome
Ddx59	1	126	68	active
Ddx59	2	111	84.6	inactive
Ddx59	3	53.4	43.9	inactive
Gm5409	1	97.6	61.8	inactive
Gm5409	2	53.4	72	inactive
Gm5409	3	79.3	87.7	inactive
Zpbp	1	78.4	79.8	inactive
Zpbp	2	89.3	66.6	inactive
Zpbp	3	73.4	85.3	inactive
Gzmg	1	129	120	active
Gzmg	2	133	110	active
Gzmg	3	59.7	68.8	inactive
Pfkl	1	78.5	58.6	inactive
Pfkl	2	62.5	56.7	inactive
Pfkl	3	108	77.5	inactive
Wipi2	1	63.6	46.4	inactive
Wipi2	2	117	56.9	inactive
Wipi2	3	80.3	58.7	inactive
Reep3	1	159	137	active
Reep3	2	47.4	53.1	inactive
Reep3	3	49.6	76.7	inactive
Septin9	1	48.6	49.9	inactive
Septin9	2	58.1	49.5	inactive
Septin9	3	123	59.2	active
Sde2	1	56.8	46.1	inactive
Sde2	2	72.2	85.2	inactive
Sde2	3	87.9	83.4	inactive
Usp26	1	86.2	93.7	inactive
Usp26	2	83	71.4	inactive
Usp26	3	41.4	52	inactive
Dock3	1	76.9	64.2	inactive
Dock3	2	81.5	90	inactive
Dock3	3	64.1	78.6	inactive
Defb41	1	93.2	114	inactive
Defb41	2	87.8	70	inactive
Defb41	3	63	89.3	inactive
Cdca7l	1	72.1	44.9	inactive
Cdca7l	2	79	94.2	inactive
Cdca7l	3	130	119	active
Bcl6b	1	76.4	57.1	inactive
Bcl6b	2	48.5	51.9	inactive
Galnt17	1	87.3	112	inactive
Galnt17	2	95.5	139	inactive
Galnt17	3	99	122	inactive
B4galnt3	1	109	85.7	inactive
B4galnt3	2	78.5	55.9	inactive
B4galnt3	3	117	118	inactive
Hdc	1	74.1	87.7	inactive
Hdc	2	78.9	58.6	inactive
Hdc	3	58.2	47.8	inactive
Sphk1	1	103	80.8	inactive
Sphk1	2	67.3	71.5	inactive
Sphk1	3	85.6	87.4	inactive
Asb4	1	101	70.4	inactive
Asb4	2	89.2	80	inactive
Asb4	3	112	93.5	inactive
Azin2	1	45.1	67.4	inactive
Azin2	2	87.9	99.2	inactive
Azin2	3	91.2	78.6	inactive

In a second layout: entries from further up.
| gene | siRNA no. | GFP, % of control | viability (ATP), % of control | Outcome |
| --- | --- | --- | --- | --- |
| Zpbp | 1 | 78.4 | 79.8 | inactive |
| Zpbp | 2 | 89.3 | 66.6 | inactive |
| Zpbp | 3 | 73.4 | 85.3 | inactive |
| Gzmg | 1 | 129 | 120 | active |
| Gzmg | 2 | 133 | 110 | active |
| Gzmg | 3 | 59.7 | 68.8 | inactive |
